Structures are written as SMILES. Structures can show the parent of a compound that is named as a salt. The list shows a part of the results. Repeats in this data set agree poorly, so a single value says little.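 Human fetal ventral-midbrain neural progenitor line ReNCell VM, differentiated without mitogens. Images stained for doublecortin (early neurons) or tyrosine hydroxylase (dopaminergic neurons) were scored by blinded raters against untreated wells (0 = no change). Repeats and both raters were averaged, and compounds averaging 2 or higher were picked as hits for retesting.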

Consider 22 compounds from the supplement of paper PMC4635364.

Assay [1] has as its system ReNCell VM. Put plainly: neuronal differentiation score (DCX+ cell fraction vs untreated, manual image score) (score (-3 to 3)); higher = more neuronal differentiation. The following applies: 2 uM, 2 weeks.
For assay [2], the system named is ReNCell VM. Put plainly: dopaminergic neuron differentiation score (TH+ cell fraction vs untreated, manual image score) (score (0 to 3)); higher = more TH+ dopaminergic neuron differentiation. Particulars: 2 uM, 4 weeks, BDNF 10 ng/ml + GDNF 10 ng/ml.

`CC(C)COCC(CN(Cc1ccccc1)c1ccccc1)N1CCCC1` (centres undefined): the neuronal differentiation score in the assay on ReNCell VM [1] (library: Spectrum) is inactive: 0. Further, the “dopaminergic neuron differentiation score” value with ReNCell VM [2] (library: Spectrum) was inactive: 0.
`CCCc1nc(C)c2c(O)nc(-c3cc(S(=O)(=O)N4CCN(CC)CC4)ccc3OCC)nn12`: in the assay on ReNCell VM [1] (library: Spectrum), the neuronal differentiation score was inactive: 0. Also, the “dopaminergic neuron differentiation score” value in the assay with ReNCell VM [2] (library: Spectrum) was inactive: 1.
For `CN1CCc2ccccc2Cc2[nH]c3ccccc3c2CC1`, the neuronal differentiation score with ReNCell VM [1] (library: LOPAC) is inactive: 1. For the same compound, in the assay with ReNCell VM [2] (library: LOPAC), the “dopaminergic neuron differentiation score” value was inactive: 0.
On to `COc1ccc(-c2coc3c(O)c(O)c(OC)cc3c2=O)cc1`, for which the neuronal differentiation score with ReNCell VM [1] (library: Spectrum) was inactive: 0. For the same compound, the “dopaminergic neuron differentiation score” value in the assay on ReNCell VM [2] (library: Spectrum) is inactive: 0.
Turning to `N=c1ccn2c(n1)O[C@H]1[C@H](O)[C@@H](CO)O[C@H]12` [Ancitabine hydrochloride], the neuronal differentiation score in the assay on ReNCell VM [1] (library: LOPAC) is inactive: 0. Also, the “dopaminergic neuron differentiation score” value in the assay on ReNCell VM [2] (library: LOPAC) was inactive: 0.
Regarding `O=C1CCc2ccc(OCCCCN3CCN(c4cccc(Cl)c4Cl)CC3)cc2N1`, the neuronal differentiation score with ReNCell VM [1] (library: Spectrum) is inactive: -3. In the assay with ReNCell VM [2] (library: Spectrum), the “dopaminergic neuron differentiation score” value was inactive: 0.
In the same order, the values of `C[C@@H](O)[C@H]1C(=O)N2C(C(=O)O)=C(SCCNC=N)C[C@H]12` are inactive: 1 and inactive: 0.
Take `CCOC(=O)N1CCC(=C2c3ccc(Cl)cc3CCc3cccnc32)CC1` [Loratidine]: the neuronal differentiation score in the assay with ReNCell VM [1] (library: Tocriscreen) was inactive: 0. Also, the “dopaminergic neuron differentiation score” value in the assay with ReNCell VM [2] (library: Tocriscreen) is inactive: 0.
Consider `COC(=O)Nc1nc2cc(Sc3ccccc3)ccc2[nH]1`, for which the neuronal differentiation score with ReNCell VM [1] (library: Spectrum) is inactive: 0. Further, the “dopaminergic neuron differentiation score” value in the assay on ReNCell VM [2] (library: Spectrum) is inactive: 0.
As to `CC(C)OC(=O)CCC/C=C\C[C@@H]1[C@@H](/C=C/[C@@H](O)COc2cccc(C(F)(F)F)c2)[C@H](O)C[C@@H]1O`, the neuronal differentiation score with ReNCell VM [1] (library: Spectrum) was inactive: 1. Also, the “dopaminergic neuron differentiation score” value in the assay with ReNCell VM [2] (library: Spectrum) is inactive: 0.
The corresponding values for `Nc1ccc(S(=O)(=O)Nc2ccc(Cl)nn2)cc1` are inactive: 0 and inactive: 0.
In the same order, the values of `O=C(CCCN1CCC(O)(c2ccc(Br)cc2)CC1)c1ccc(F)cc1` are active: 2 and inactive: 0.
For `CC[C@@H](CC[C@@H](C)[C@H]1CC[C@H]2[C@@H]3CCC4C[C@@H](O)CC[C@]4(C)[C@H]3CC[C@]12C)C(C)C` (stereo partly drawn) [Beta-sistosterol], the neuronal differentiation score in the assay on ReNCell VM [1] (library: Phytochemical) was inactive: -1. In addition, in the assay on ReNCell VM [2] (library: Phytochemical), the “dopaminergic neuron differentiation score” value is inactive: 0.
The corresponding values for `COc1ccc(C[C@H](N)C(=O)N[C@H]2[C@@H](O)[C@H](n3cnc4c(N(C)C)ncnc43)O[C@@H]2CO)cc1` [Puromycin dihydrochloride] are inactive: 0 and inactive: 0.
As for `C[C@]12C=CC(=O)N[C@@H]1CC[C@@H]1[C@@H]2CC[C@]2(C)[C@@H](C(=O)Nc3cc(C(F)(F)F)ccc3C(F)(F)F)CC[C@@H]12`, the neuronal differentiation score in the assay with ReNCell VM [1] (library: Spectrum) is inactive: 0. The “dopaminergic neuron differentiation score” value in the assay with ReNCell VM [2] (library: Spectrum) was inactive: 0.
Regarding `CC(=O)Nc1ncc([N+](=O)[O-])s1`, the neuronal differentiation score in the assay with ReNCell VM [1] (library: Spectrum) is inactive: 0. For the same compound, in the assay with ReNCell VM [2] (library: Spectrum), the “dopaminergic neuron differentiation score” value was inactive: 0.
Consider `CCC(C)(C)C(=O)O[C@H]1C[C@@H](C)C=C2C=C[C@H](C)[C@H](CC[C@@H]3C[C@@H](O)CC(=O)O3)[C@H]21`, for which, in the assay with ReNCell VM [1] (library: Spectrum), the neuronal differentiation score was inactive: 1. Moreover, the “dopaminergic neuron differentiation score” value in the assay on ReNCell VM [2] (library: Spectrum) was active: 2.
In the same order, the values of `N=c1ccn2c(n1)O[C@H]1[C@H](O)[C@@H](CO)O[C@H]12` are inactive: 0 and inactive: 0.
The corresponding values for `CC(NCCc1ccc(O)cc1)C(O)c1ccc(O)cc1` (centres undefined) are inactive: 0 and inactive: 0.
For `CC(C)/N=c1\cc2n(-c3ccc(Cl)cc3)c3ccccc3nc-2cc1Nc1ccc(Cl)cc1` [Clofazimine], the neuronal differentiation score with ReNCell VM [1] (library: Prestwick) was inactive: 0. Besides, the “dopaminergic neuron differentiation score” value in the assay on ReNCell VM [2] (library: Prestwick) was inactive: 1.
Regarding `OC[C@H]1O[C@@H](OCCc2ccc(O)cc2)[C@H](O)[C@@H](O)[C@@H]1O` [salidroside], the neuronal differentiation score in the assay on ReNCell VM [1] (library: Natural) is inactive: 0. In addition, the “dopaminergic neuron differentiation score” value with ReNCell VM [2] (library: Natural) was inactive: 0.
Consider `CC(=O)Oc1cccc(C)c1` [meta-CRESYL ACETATE], for which the neuronal differentiation score in the assay with ReNCell VM [1] (library: Spectrum) is inactive: 0. Moreover, in the assay on ReNCell VM [2] (library: Spectrum), the “dopaminergic neuron differentiation score” value is inactive: 0.
